Test [1] deals with hAMSC donor 1. The test is described as follows: Hoechst total cell count ratio vs vehicle control; higher = more cells (less toxicity).
Test [2] deals with hAMSC donor 2. Described as above.
Test [3] relates to hAMSC donor 1. Put plainly: transgenic luciferase activity (RLU/mg protein) fold change vs vehicle control (ratio); higher = more transgene expression.
The test system of test [4] is hAMSC donor 2. The description is as above.
Test [5] concerns hAMSC donor 1. Put plainly: transfection efficiency (EGFP+ cells / Hoechst count) fold change vs vehicle control (ratio); hAMSC are human adipose-derived mesenchymal stem cells given an EGFP-luciferase plasmid by lipofection; higher = enhanced transfection.
For test [6], the system named is hAMSC donor 2. The description is as above.
Setting [7] is: priming compound concentration 0.2 µM.
Setting [8] is: priming compound concentration 1.7 µM.
The mark [9] stands for this setting: priming compound concentration 13 µM.

The structures appear in SMILES notation. ± gives the standard deviation of the averaged measurements. The list shows a part of the results. The data scatter; read single values as rough.

Consider `Cc1c(O)c(=O)ccn1C` [Deferiprone], for which the “Hoechst total cell count ratio” value in the test on hAMSC donor 1 [1] (setting [7]) turned out to be 1.34 ± 0.15; in the test with hAMSC donor 1 [1] (setting [8]) it was 1.17 ± 0.022; in the test on hAMSC donor 1 [1] (setting [9]), 0.999 ± 0.17; in the test with hAMSC donor 2 [2] (setting [7]) it was 1.02 ± 0.71; in the test with hAMSC donor 2 [2] (setting [8]), 0.928 ± 0.098; in the test on hAMSC donor 2 [2] (setting [9]), 1.97 ± 0.2. Also, the transgenic luciferase activity with hAMSC donor 1 [3] (setting [8]) stood at 1.42 ± 0.83; in the test on hAMSC donor 2 [4] (setting [7]), 0.71 ± 0.23; in the test on hAMSC donor 2 [4] (setting [8]) it was 0.709 ± 0.028; with hAMSC donor 2 [4] (setting [9]), 0.0946 ± 0.065. The transfection efficiency with hAMSC donor 1 [5] (setting [7]) amounted to 0.53 ± 0.079; in the test on hAMSC donor 1 [5] (setting [8]), 1.28 ± 0.4; in the test with hAMSC donor 1 [5] (setting [9]), 0.896 ± 0.38; with hAMSC donor 2 [6] (setting [7]), 1.19 ± 0.11; with hAMSC donor 2 [6] (setting [8]), 0.8 ± 0.12; in the test on hAMSC donor 2 [6] (setting [9]) it was 0.836 ± 0.094.
Turning to `NCC(=O)CCC(=O)O` [Aminolevulinic acid], the “Hoechst total cell count ratio” value in the test with hAMSC donor 1 [1] (setting [7]) was determined as 1.42 ± 0.32; in the test with hAMSC donor 1 [1] (setting [8]), 1.11 ± 0.16; in the test on hAMSC donor 1 [1] (setting [9]) it was 0.875 ± 0.021; in the test on hAMSC donor 2 [2] (setting [7]), 1.19 ± 0.14; in the test on hAMSC donor 2 [2] (setting [8]) it was 0.973 ± 0.055; in the test with hAMSC donor 2 [2] (setting [9]) it was 1.48 ± 0.43. Moreover, the transgenic luciferase activity in the test with hAMSC donor 1 [3] (setting [8]) was found to be 3.11 ± 1.7; in the test on hAMSC donor 2 [4] (setting [7]), 0.811 ± 0.38; with hAMSC donor 2 [4] (setting [8]), 0.709 ± 0.32; in the test with hAMSC donor 2 [4] (setting [9]), 1.05 ± 0.49. Further, the transfection efficiency with hAMSC donor 1 [5] (setting [7]) was determined as 0.91 ± 0.11; with hAMSC donor 1 [5] (setting [8]), 1.29 ± 0.49; with hAMSC donor 1 [5] (setting [9]), 1.26 ± 0.19; in the test with hAMSC donor 2 [6] (setting [7]) it was 1.57 ± 0.42; in the test with hAMSC donor 2 [6] (setting [8]) it was 1.01 ± 0.073; in the test on hAMSC donor 2 [6] (setting [9]), 1.61 ± 0.67.
For `CC1(C)S[C@@H]2[C@H](/N=C/N3CCCCCC3)C(=O)N2[C@H]1C(=O)O` [Mecillinam], the “Hoechst total cell count ratio” value in the test on hAMSC donor 1 [1] (setting [7]) was 1.31 ± 0.22; in the test with hAMSC donor 1 [1] (setting [8]), 1.17 ± 0.11; in the test on hAMSC donor 1 [1] (setting [9]), 1.047 ± 0.01; in the test with hAMSC donor 2 [2] (setting [7]), 1.2 ± 0.36; in the test with hAMSC donor 2 [2] (setting [8]), 1.04 ± 0.22; in the test with hAMSC donor 2 [2] (setting [9]) it was 1.96 ± 0.37. Moreover, the transgenic luciferase activity in the test with hAMSC donor 1 [3] (setting [8]) was 2.5 ± 1.2; in the test on hAMSC donor 2 [4] (setting [7]), 0.51 ± 0.016; in the test with hAMSC donor 2 [4] (setting [8]), 0.964 ± 0.12; in the test with hAMSC donor 2 [4] (setting [9]), 0.325 ± 0.14. The transfection efficiency came to 1.05 ± 0.25 in the test on hAMSC donor 1 [5] (setting [7]); 1.44 ± 0.62 with hAMSC donor 1 [5] (setting [8]); 1.17 ± 0.18 in the test on hAMSC donor 1 [5] (setting [9]); 1.25 ± 0.32 in the test with hAMSC donor 2 [6] (setting [7]); 1.32 ± 0.17 with hAMSC donor 2 [6] (setting [8]); 1.24 ± 0.42 with hAMSC donor 2 [6] (setting [9]).
On to `Nc1nc2c(ncn2COCCO)c(=O)[nH]1` [Acyclovir], for which the “Hoechst total cell count ratio” value with hAMSC donor 1 [1] (setting [7]) was 1.15 ± 0.16; with hAMSC donor 1 [1] (setting [8]), 1.63 ± 0.18; in the test with hAMSC donor 1 [1] (setting [9]), 1.39 ± 0.29; in the test with hAMSC donor 2 [2] (setting [7]), 1.09 ± 0.058; in the test on hAMSC donor 2 [2] (setting [8]), 1.2 ± 0.087; in the test with hAMSC donor 2 [2] (setting [9]), 1.02 ± 0.13. In addition, the transgenic luciferase activity in the test with hAMSC donor 1 [3] (setting [9]) was determined as 0.562 ± 0.21; in the test with hAMSC donor 2 [4] (setting [7]), 0.691 ± 0.15; with hAMSC donor 2 [4] (setting [8]), 0.816 ± 0.045; in the test on hAMSC donor 2 [4] (setting [9]) it was 0.668 ± 0.13. Moreover, the transfection efficiency was determined as 0.836 ± 0.079 in the test with hAMSC donor 1 [5] (setting [7]); 1.04 ± 0.51 in the test with hAMSC donor 1 [5] (setting [8]); 0.891 ± 0.25 in the test with hAMSC donor 1 [5] (setting [9]); 1.13 ± 0.12 in the test with hAMSC donor 2 [6] (setting [7]); 1.01 ± 0.19 in the test on hAMSC donor 2 [6] (setting [8]); 0.904 ± 0.22 in the test with hAMSC donor 2 [6] (setting [9]).
Turning to `CC(C)(C)NCC(O)COc1cccc2c1CC(O)C(O)C2` (configuration not stated) [Nadolol], the “Hoechst total cell count ratio” value in the test with hAMSC donor 1 [1] (setting [7]) stood at 1.11 ± 0.086; with hAMSC donor 1 [1] (setting [8]), 1.65 ± 0.021; with hAMSC donor 1 [1] (setting [9]), 1.39 ± 0.15; in the test on hAMSC donor 2 [2] (setting [7]) it was 1.12 ± 0.13; with hAMSC donor 2 [2] (setting [8]), 1.12 ± 0.058; with hAMSC donor 2 [2] (setting [9]), 1.37 ± 0.23. The transgenic luciferase activity in the test on hAMSC donor 1 [3] (setting [9]) stood at 0.732 ± 0.11; in the test with hAMSC donor 2 [4] (setting [7]), 0.521 ± 0.21; with hAMSC donor 2 [4] (setting [8]) it was 0.914 ± 0.12; in the test on hAMSC donor 2 [4] (setting [9]), 0.587 ± 0.091. Also, the transfection efficiency with hAMSC donor 1 [5] (setting [7]) was determined as 1.08 ± 0.2; in the test with hAMSC donor 1 [5] (setting [8]), 1.02 ± 0.18; with hAMSC donor 1 [5] (setting [9]), 1.22 ± 0.23; in the test on hAMSC donor 2 [6] (setting [7]), 1.05 ± 0.085; with hAMSC donor 2 [6] (setting [8]) it was 1.12 ± 0.035; in the test with hAMSC donor 2 [6] (setting [9]), 0.794 ± 0.041.
In the case of `COc1cc2nc(N3CCN(C(=O)C4COc5ccccc5O4)CC3)nc(N)c2cc1OC` (configuration not stated) [Doxazosin], the “Hoechst total cell count ratio” value with hAMSC donor 1 [1] (setting [7]) is 1.15 ± 0.15; with hAMSC donor 1 [1] (setting [8]) it was 1.61 ± 0.072; in the test with hAMSC donor 1 [1] (setting [9]), 1.33 ± 0.26; in the test on hAMSC donor 2 [2] (setting [7]), 1.09 ± 0.1; in the test with hAMSC donor 2 [2] (setting [8]), 1.21 ± 0.037; in the test on hAMSC donor 2 [2] (setting [9]), 1.31 ± 0.016. The transgenic luciferase activity was 0.801 ± 0.1 with hAMSC donor 1 [3] (setting [9]), 0.566 ± 0.35 with hAMSC donor 2 [4] (setting [7]), 0.734 ± 0.17 in the test with hAMSC donor 2 [4] (setting [8]) and 0.761 ± 0.053 with hAMSC donor 2 [4] (setting [9]). The transfection efficiency in the test on hAMSC donor 1 [5] (setting [7]) came to 1.19 ± 0.26; with hAMSC donor 1 [5] (setting [8]), 0.912 ± 0.18; in the test with hAMSC donor 1 [5] (setting [9]), 1.08 ± 0.3; with hAMSC donor 2 [6] (setting [7]), 0.979 ± 0.14; with hAMSC donor 2 [6] (setting [8]) it was 0.827 ± 0.069; in the test on hAMSC donor 2 [6] (setting [9]), 0.749 ± 0.11.
For the compound `CN1CCN(CC/C=C2/c3ccccc3Sc3ccc(S(=O)(=O)N(C)C)cc32)CC1` [Thiothixene], the “Hoechst total cell count ratio” value in the test with hAMSC donor 1 [1] (setting [7]) amounted to 1.22 ± 0.073; in the test on hAMSC donor 1 [1] (setting [8]), 1.5 ± 0.19; with hAMSC donor 1 [1] (setting [9]), 1.4 ± 0.043; in the test on hAMSC donor 2 [2] (setting [7]) it was 1.08 ± 0.05; in the test with hAMSC donor 2 [2] (setting [8]) it was 1.31 ± 0.2; with hAMSC donor 2 [2] (setting [9]) it was 1.56 ± 0.14. The transgenic luciferase activity in the test on hAMSC donor 1 [3] (setting [9]) was 0.302 ± 0.08; in the test on hAMSC donor 2 [4] (setting [7]), 0.797 ± 0.13; with hAMSC donor 2 [4] (setting [8]), 0.535 ± 0.32; in the test with hAMSC donor 2 [4] (setting [9]) it was 0.389 ± 0.041. The transfection efficiency in the test with hAMSC donor 1 [5] (setting [7]) came out at 0.914 ± 0.42; in the test with hAMSC donor 1 [5] (setting [8]) it was 1.02 ± 0.21; in the test on hAMSC donor 1 [5] (setting [9]), 0.656 ± 0.081; in the test on hAMSC donor 2 [6] (setting [7]) it was 0.932 ± 0.051; in the test on hAMSC donor 2 [6] (setting [8]) it was 0.918 ± 0.21; with hAMSC donor 2 [6] (setting [9]), 0.458 ± 0.085.
